The results in this text go back to paper PMC12003269.

The target of this assay is T1, 3×FLAG-RAB11B (UniProt Q15907).
T1 sequence: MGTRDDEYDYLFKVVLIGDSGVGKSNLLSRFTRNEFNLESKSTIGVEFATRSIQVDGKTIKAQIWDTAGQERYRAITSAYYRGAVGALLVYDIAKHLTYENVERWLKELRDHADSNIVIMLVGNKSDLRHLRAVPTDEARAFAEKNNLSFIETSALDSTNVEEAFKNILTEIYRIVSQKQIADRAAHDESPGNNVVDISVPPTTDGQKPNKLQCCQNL
Kind of assay: affinity purification with mass spectrometry; 3×FLAG-RAB11B transiently transfected into HEK293T; 2 mg lysate immunoprecipitated overnight with anti-FLAG M2 affinity gel beads at 4°C; SDS-PAGE, bands ≥25 kDa analysed by mass spectrometry.

These are yes or no findings as the source states them, for the method shown. In cells and extracts the contact can be indirect. A yes stands for co-enrichment or nearness to the bait. Other partners may have been found. Sequences can lack the tags named with a protein.

B1: RAB11FIP5 (RAB11 family interacting protein 5) (protein, UniProt Q9BXF6 1-653)
chain: MALVRGAEPAAGPSRWLPTHVQVTVLRARGLRGKSSGAGSTSDAYTVIQVGREKYSTSVVEKTHGCPEWREECSFELPPGALDGLLRAQEADAGPAPWAASSAAACELVLTTMHRSLIGVDKFLGQATVALDEVFGAGRAQHTQWYKLHSKPGKKEKERGEIEVTIQFTRNNLSASMFDLSMKDKPRSPFSKIRDKMKGKKKYDLESASAILPSSAIEDPDLGSLGKMGKAKGFFLRNKLRKSSLTQSNTSLGSDSTLSSASGSLAYQGPGAELLTRSPSRSSWLSTEGGRDSAQSPKLFTHKRTYSDEANQMRVAPPRALLDLQGHLDAASRSSLCVNGSHIYNEEPQGPVRHRSSISGSLPSSGSLQAVSSRFSEEGPRSTDDTWPRGSRSNSSSEAVLGQEELSAQAKVLAPGASHPGEEEGARLPEGKPVQVATPIVASSEAVAEKEGARKEERKPRMGLFHHHHQGLSRSELGRRSSLGEKGGPILGASPHHSSSGEEKAKSSWFGLREAKDPTQKPSPHPVKPLSAAPVEGSPDRKQSRSSLSIALSSGLEKLKTVTSGSIQPVTQAPQAGQMVDTKRLKDSAVLDQSAKYYHLTHDELISLLLQRERELSQRDEHVQELESYIDRLLVRIMETSPTLLQIPPGPPK
For B1, the binding entry was “binds”.
